Test results taken from the supplement of paper PMC4604168 (melanoma cell lines).
The other results are listed elsewhere or left out. Many values rest on one well or one pass, so single values are uncertain.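 The apoptosis fraction was the count of cleaved-PARP antibody-stained nuclei relative to all DNA-stained nuclei, imaged in 1,536-well plates. Screening doses were set so most cells survived, and baseline and induced cleaved-PARP levels vary greatly across cell lines.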

Columns and labels:
Assay in all cases: cleaved PARP positive nuclei fraction relative to DMSO control; melanoma cells; higher = more apoptosis
Conditions in all cases: library dose: low library concentration; 72 h
WM115 = system: WM115
WM1716 = system: WM1716
WM1745 = system: WM1745
WM3526 = system: WM3526
WM3619 = system: WM3619
WM451Lu = system: WM451Lu

SMILES | cleaved PARP positive nuclei fraction (WM115) [%] | cleaved PARP positive nuclei fraction (WM1716) [%] | cleaved PARP positive nuclei fraction (WM1745) [%] | cleaved PARP positive nuclei fraction (WM3526) [%] | cleaved PARP positive nuclei fraction (WM3619) [%] | cleaved PARP positive nuclei fraction (WM451Lu) [%]
Oc1cc(-c2nc(-c3ccccc3)[nH]c2-c2ccncc2)ccc1Cl + O=C(Oc1ccc([N+](=O)[O-])cc1)N1CCC(C(O)(c2ccc3c(c2)OCO3)c2ccc3c(c2)OCO3)CC1 [JZL184] (first compound 0.2 µM, partner dose 1 µM) | 216 | 90.4 | 220 | 142 | 74.4 | 25.1
C[C@]12O[C@H](C[C@]1(O)CO)n1c3ccccc3c3c4c(c5c6ccccc6n2c5c31)CNC4=O [Lestaurtinib] + COc1cc2c(Oc3ccc4[nH]c(C)cc4c3F)ncnc2cc1OCCCN1CCCC1 [cediranib] (first compound 0.004 µM, partner dose 0.4 µM) | 56 | 72.9 | 84.3 | 119 | 87.1 | 90.1
N.N.[Cl][Pt][Cl] [cisplatin] + C#Cc1cccc(Nc2ncnc3cc(OCCOC)c(OCCOC)cc23)c1 [erlotinib] (first compound 1.6 µM, partner dose 0.8 µM) | 115 | 176 | 95.4 | 30.5 | 91.3 | 72.9
C[C@]12O[C@H](C[C@]1(O)CO)n1c3ccccc3c3c4c(c5c6ccccc6n2c5c31)CNC4=O [Lestaurtinib] + CCCS(=O)(=O)Nc1ccc(F)c(C(=O)c2c[nH]c3ncc(Cl)cc23)c1F [PLX4720] (first compound 0.004 µM, partner dose 0.08 µM) | 186 | 38.4 | 98.8 | 103 | 78.9 | 87.4
Cc1cc(Nc2cc(N3CCN(C)CC3)nc(Sc3ccc(NC(=O)C4CC4)cc3)n2)n[nH]1 [Tozasertib] + Cc1cc(SCc2sc(-c3ccc(C(F)(F)F)c(F)c3)nc2C)ccc1OCC(=O)O [GW0742] (first compound 0.006 µM, partner dose 2 µM) | 158 | 74 | 232 | 51.9 | 118 | 59.4
C[C@]12O[C@H](C[C@]1(O)CO)n1c3ccccc3c3c4c(c5c6ccccc6n2c5c31)CNC4=O [Lestaurtinib] + CCN(CC)CCNC(=O)c1c(C)[nH]c(/C=C2\C(=O)Nc3ccc(F)cc32)c1C [sunitinib] (first compound 0.004 µM, partner dose 0.4 µM) | 176 | 50.9 | 107 | 100 | 92.7 | 45
CC(=O)c1c(C)c2cnc(Nc3ccc(N4CCNCC4)cn3)nc2n(C2CCCC2)c1=O [palbociclib] + C/C(O)=C(\C#N)C(=O)Nc1cc(Br)ccc1Br [LFM-A13] (first compound 0.04 µM, partner dose 2 µM) | 50.7 | 194 | 101 | 116 | 132 | 211
O=C(O)c1ccc2c(c1)nc(Nc1cccc(Cl)c1)c1ccncc12 + Cc1cc(SCc2sc(-c3ccc(C(F)(F)F)c(F)c3)nc2C)ccc1OCC(=O)O [GW0742] (first compound 0.4 µM, partner dose 2 µM) | 88 | 213 | 94.2 | 87.5 | 93.3 | 125
Cn1cc(C2=C(c3cn(C4CCN(Cc5ccccn5)CC4)c4ccccc34)C(=O)NC2=O)c2ccccc21 [Enzastaurin] + CC(=O)O[C@@]12CO[C@@H]1C[C@H](O)[C@@]1(C)C(=O)[C@H](O)C3=C(C)[C@@H](OC(=O)[C@H](O)[C@@H](NC(=O)OC(C)(C)C)c4ccccc4)C[C@@](O)([C@@H](OC(=O)c4ccccc4)[C@H]21)C3(C)C [Docetaxel] (first compound 0.8 µM, partner dose 0.0001 µM) | 190 | 192 | 179 | 729 | 133 | 56
O=C(Oc1ccc([N+](=O)[O-])cc1)N1CCC(C(O)(c2ccc3c(c2)OCO3)c2ccc3c(c2)OCO3)CC1 + CCCCCCCCCCCC1=C(O)C(=O)C=C(O)C1=O [Embelin] (first compound 1 µM, partner dose 1.2 µM) | 64.6 | 177 | 94.2 | 153 | 94.9 | 108
C=C(c1ccc(C(=O)O)cc1)c1cc2c(cc1C)C(C)(C)CCC2(C)C [Bexarotene] + Cc1cc(SCc2sc(-c3ccc(C(F)(F)F)c(F)c3)nc2C)ccc1OCC(=O)O [GW0742] (first compound 2 µM, partner dose 2 µM) | 38.1 | 94.9 | 91.8 | 56.2 | 87 | 113
CN(c1ncccc1CNc1nc(Nc2ccc3c(c2)CC(=O)N3)ncc1C(F)(F)F)S(C)(=O)=O + N.N.[Cl][Pt][Cl] [cisplatin] (first compound 0.08 µM, partner dose 1.6 µM) | 296 | 71.8 | 107 | 83.4 | 92.8 | 296
COc1ccc(C2=N[C@@H](c3ccc(Cl)cc3)[C@@H](c3ccc(Cl)cc3)N2C(=O)N2CCNC(=O)C2)c(OC(C)C)c1 [Nutlin-3] + O=C(Oc1ccc([N+](=O)[O-])cc1)N1CCC(C(O)(c2ccc3c(c2)OCO3)c2ccc3c(c2)OCO3)CC1 [JZL184] (first compound 0.1 µM, partner dose 1 µM) | 79.4 | 72.9 | 89.3 | 167 | 107 | 34
Cn1cc(C2=C(c3cn(C4CCN(Cc5ccccn5)CC4)c4ccccc34)C(=O)NC2=O)c2ccccc21 [Enzastaurin] + CC(=O)c1c(C)c2cnc(Nc3ccc(N4CCNCC4)cn3)nc2n(C2CCCC2)c1=O [palbociclib] (first compound 0.8 µM, partner dose 0.04 µM) | 63.5 | 45.7 | 129 | 175 | 90.4 | 89.2
COc1cc2c(Oc3ccc4[nH]c(C)cc4c3F)ncnc2cc1OCCCN1CCCC1 [cediranib] + O=C(Oc1ccc([N+](=O)[O-])cc1)N1CCC(C(O)(c2ccc3c(c2)OCO3)c2ccc3c(c2)OCO3)CC1 [JZL184] (first compound 0.4 µM, partner dose 1 µM) | 261 | 95.8 | 105 | 81.2 | 77.7 | 65.6
C[As](C)SC[C@H](NC(=O)CC[C@H](N)C(=O)O)C(=O)NCC(=O)O [Darinaparsin] + C[C@]1(c2nc3c(C(N)=O)cccc3[nH]2)CCCN1 [Veliparib] (first compound 0.4 µM, partner dose 1.4 µM) | 91.4 | 164 | 93.4 | 22.3 | 86.4 | 46.8
O=c1[nH]nc(Sc2ncc([N+](=O)[O-])s2)n1-c1ccc2c(c1)OCCO2 + Cn1cc(C2=C(c3cn(C4CCN(Cc5ccccn5)CC4)c4ccccc34)C(=O)NC2=O)c2ccccc21 [Enzastaurin] (first compound 0.2 µM, partner dose 0.8 µM) | 22.1 | 43.6 | 94 | 157 | 93.4 | 79.5
Cc1ccc(Nc2nccc(N(C)c3ccc4c(C)n(C)nc4c3)n2)cc1S(N)(=O)=O [Pazopanib] + C[As](C)SC[C@H](NC(=O)CC[C@H](N)C(=O)O)C(=O)NCC(=O)O [Darinaparsin] (first compound 0.4 µM, partner dose 0.4 µM) | 29.4 | 247 | 100 | 142 | 91.6 | 20
Cc1cc(N2CCOCC2)cc2[nH]c(-c3c(NC[C@@H](O)c4cccc(Cl)c4)cc[nH]c3=O)nc12 + O=C(Oc1ccc([N+](=O)[O-])cc1)N1CCC(C(O)(c2ccc3c(c2)OCO3)c2ccc3c(c2)OCO3)CC1 [JZL184] (first compound 0.2 µM, partner dose 1 µM) | 71.6 | 114 | 135 | 158 | 108 | 119
Cc1nc(Nc2ncc(C(=O)Nc3c(C)cccc3Cl)s2)cc(N2CCN(CCO)CC2)n1 [dasatanib] + O=C(Oc1ccc([N+](=O)[O-])cc1)N1CCC(C(O)(c2ccc3c(c2)OCO3)c2ccc3c(c2)OCO3)CC1 [JZL184] (first compound 0.004 µM, partner dose 1 µM) | 92.2 | 179 | 160 | 86 | 99.7 | 59.5
Cn1cc(C2=C(c3cn(C4CCN(Cc5ccccn5)CC4)c4ccccc34)C(=O)NC2=O)c2ccccc21 [Enzastaurin] + O=C(O)c1ccc(-c2c[nH]c3ncc(-c4ccccc4)cc23)cc1C1CCCC1 [GSK650394] (first compound 0.8 µM, partner dose 0.16 µM) | 41.3 | 214 | 109 | 60.5 | 95.5 | 53
CC[C@]1(O)C[C@H]2CN(CCc3c([nH]c4ccccc34)[C@@](C(=O)OC)(c3cc4c(cc3OC)N(C=O)[C@H]3[C@@](O)(C(=O)OC)[C@H](OC(C)=O)[C@]5(CC)C=CCN6CC[C@]43[C@@H]65)C2)C1 [vincristine] + C/C(O)=C(\C#N)C(=O)Nc1cc(Br)ccc1Br [LFM-A13] (first compound 0.0001 µM, partner dose 2 µM) | 1040 | 527 | 220 | 91.4 | 180 | 146
CC1(C)CCC(c2ccc(Cl)cc2)=C(CN2CCN(c3ccc(C(=O)NS(=O)(=O)c4ccc(N[C@H](CCN5CCOCC5)CSc5ccccc5)c(S(=O)(=O)C(F)(F)F)c4)cc3)CC2)C1 + C/C(O)=C(\C#N)C(=O)Nc1cc(Br)ccc1Br [LFM-A13] (first compound 0.4 µM, partner dose 2 µM) | 219 | 432 | 1040 | 202 | 108 | 133
C[C@]12O[C@H](C[C@]1(O)CO)n1c3ccccc3c3c4c(c5c6ccccc6n2c5c31)CNC4=O [Lestaurtinib] + Oc1nc(-c2ccc(C(F)(F)F)cc2)nc2c1CSCC2 [XAV939] (first compound 0.004 µM, partner dose 2 µM) | 197 | 229 | 119 | 85.5 | 102 | 60.5

An excerpt of these results, in CSV form.
SMILES,cleaved PARP positive nuclei fraction (WM115) [%],cleaved PARP positive nuclei fraction (WM1716) [%],cleaved PARP positive nuclei fraction (WM1745) [%],cleaved PARP positive nuclei fraction (WM3526) [%],cleaved PARP positive nuclei fraction (WM3619) [%],cleaved PARP positive nuclei fraction (WM451Lu) [%]
"C[C@]12O[C@H](C[C@]1(O)CO)n1c3ccccc3c3c4c(c5c6ccccc6n2c5c31)CNC4=O [Lestaurtinib] + CCN(CC)CCNC(=O)c1c(C)[nH]c(/C=C2\C(=O)Nc3ccc(F)cc32)c1C [sunitinib] (first compound 0.004 µM, partner dose 0.4 µM)",176,50.9,107,100,92.7,45
"Cn1cc(C2=C(c3cn(C4CCN(Cc5ccccn5)CC4)c4ccccc34)C(=O)NC2=O)c2ccccc21 [Enzastaurin] + CC(=O)O[C@@]12CO[C@@H]1C[C@H](O)[C@@]1(C)C(=O)[C@H](O)C3=C(C)[C@@H](OC(=O)[C@H](O)[C@@H](NC(=O)OC(C)(C)C)c4ccccc4)C[C@@](O)([C@@H](OC(=O)c4ccccc4)[C@H]21)C3(C)C [Docetaxel] (first compound 0.8 µM, partner dose 0.0001 µM)",190,192,179,729,133,56
